# The list shows a part of the results. These are further read-outs of the screen, such as a control signal, another cell line or another target. No call is given for them. Compounds called inactive in the main read-out are mostly missing here. The note in brackets gives the kind of curve behind each potency; many fits are weak.
# Experiment: qHTS Assay for Lipid Storage Modulators in Drosophila S3 Cells;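 for cell number change: cells counted by Cell Tracker Red CMTPX staining in the red channel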
# Settings: BODIPY lipid droplet fluorescence, 18-24 h; for cell number change: measured here: cell count max response, cells fed with added oleic acid
# How it was run: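 Laser-scanning cytometry quantifies lipid droplet accumulation (500–530 nm total intensity; droplet/cell object ratio) in oleic acid-fed (400 uM added) Drosophila S3 cells treated with a concentration series. 20 uM Triacsin C defined 100% inhibition.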
# [1] = measured here: lipid fluorescence (Fed channel) AC50, cells fed with added oleic acid
# [2] = measured here: cell number channel AC50, cells fed with added oleic acid
smiles,measurement,setting,value
CC1(C)SCC(C(=O)O)N1C=O (stereo not drawn),cell number change,,-18.9%
same,AC50,[1],"6.51 µM [falling, full curve]"
O=C(Nc1ccsc1C(=O)NC1CC1)c1ccccc1,AC50,[1],"0.517 µM [rising, full curve]"
Cc1ccccc1NC(=O)/C(=C/c1ccco1)c1ccccc1,cell number change,,-5.17%
same,AC50,[1],"0.13 µM [rising, full curve, poor fit]"
CCOC(=O)c1c(C)[nH]c(C(=O)COC(=O)c2ccccc2NC(=O)c2ccco2)c1C,cell number change,,-4.2%
same,AC50,[1],"6.51 µM [rising, single point]"
CN(Cc1ccccc1)C1CCN(Cc2ccccc2[N+](=O)[O-])CC1,cell number change,,8.21%
same,AC50,[2],"0.00517 µM [rising, full curve, poor fit]"
O=C(Nn1c(Cc2ccccc2)nc2ccccc2c1=O)c1c(O)c2cccc3c2n(c1=O)CCC3,cell number change,,9.67%
Cn1c(C(=O)NCCc2c[nH]c3ccccc23)cc2sccc21,cell number change,,-43%
same,AC50,[2],"29.1 µM [falling, single point]"
same,AC50,[1],"23.1 µM [falling, partial curve]"
CC1=C(C(=O)OCc2ccccc2)C(c2ccsc2)C(C#N)=C(N)O1 (stereo not drawn),cell number change,,-41.5%
same,AC50,[2],"20.6 µM [falling, single point]"
same,AC50,[1],"20.6 µM [falling, single point]"
COc1cc(C(=S)N2CCCC2)ccc1OCc1ccccc1,cell number change,,-6.04%
same,AC50,[1],"6.51 µM [rising, partial curve, poor fit]"
Cn1nnnc1SCC(=O)Nc1ccccc1Cl,cell number change,,-84.7%
same,AC50,[2],"18.4 µM [falling, single point]"
same,AC50,[1],"0.146 µM [falling, full curve, poor fit]"
CCC1(c2ccccc2)NC(=O)N(CC(=O)Nc2ccccc2C(=O)NC2CC2)C1=O (stereo not drawn),cell number change,,-3.63%
CCOC(=O)c1cnc2c(-c3ccccc3)c(C)nn2c1N,AC50,[2],"0.184 µM [rising, full curve, poor fit]"
same,AC50,[1],"0.092 µM [rising, full curve, poor fit]"
CCOc1ccccc1C(=O)OCC(=O)Nc1cc(S(=O)(=O)N2CCOCC2)ccc1C,cell number change,,5.16%
same,AC50,[1],"0.82 µM [falling, single point]"
COc1ccc(C(=O)N=C2SC3CS(=O)(=O)CC3N2Cc2ccc(F)cc2)cc1 (stereo not drawn),cell number change,,89.3%
same,AC50,[2],"29.1 µM [rising, single point]"
same,AC50,[1],"29.1 µM [falling, single point]"
Cc1ccc(-c2c(C(=O)NNC(=S)NCC3CCCO3)csc2C)cc1 (stereo not drawn),cell number change,,-7.01%
same,AC50,[2],"0.461 µM [rising, partial curve, poor fit]"
CCOc1ccc(N(CC(=O)NC2CCCCC2)S(=O)(=O)c2ccccc2)cc1,cell number change,,-7.94%
same,AC50,[2],"0.164 µM [falling, full curve, poor fit]"

# Quoted from above for reference:
smiles,measurement,setting,value
Cc1ccc(-c2c(C(=O)NNC(=S)NCC3CCCO3)csc2C)cc1 (stereo not drawn),AC50,[2],"0.461 µM [rising, partial curve, poor fit]"
CCOc1ccc(N(CC(=O)NC2CCCCC2)S(=O)(=O)c2ccccc2)cc1,cell number change,,-7.94%
same,AC50,[2],"0.164 µM [falling, full curve, poor fit]"

# Reference: PubChem BioAssay AID2685 (National Center for Advancing Translational Sciences (NCATS), 2010)
